Measurements published in publication PMC7928032.
Results are given in words; binding and its absence hold for the method and conditions named.

By UniProt entry, the sequences of proteins in these tests, tags left out. Residues count along the entry.
UniProt Q92615, residues 151-328: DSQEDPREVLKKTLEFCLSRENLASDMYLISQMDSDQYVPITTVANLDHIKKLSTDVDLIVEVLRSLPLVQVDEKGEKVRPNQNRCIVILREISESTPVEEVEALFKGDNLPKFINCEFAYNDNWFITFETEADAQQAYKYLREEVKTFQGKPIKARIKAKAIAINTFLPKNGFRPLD
UniProt Q71RC2, residues 111-287: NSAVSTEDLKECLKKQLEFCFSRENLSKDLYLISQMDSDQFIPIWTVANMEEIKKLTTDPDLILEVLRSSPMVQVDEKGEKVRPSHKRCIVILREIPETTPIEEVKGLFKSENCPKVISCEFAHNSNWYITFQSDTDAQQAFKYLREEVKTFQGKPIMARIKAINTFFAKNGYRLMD

Experiments:
[1] = biological target: HsLaRP4B La-module (151–328) (human) (UniProt Q92615); assay: SEC-SAXS; in-line size exclusion (Agilent BioSEC3, 300 Å pores) with SAXS at SWING, SOLEIL; apo protein loaded at around 150–200 μM; 20 mM Tris pH 7.5, 100 mM KCl, 1 mM TCEP; 25°C; molecular weight from Porod volume compared with sequence; both purified
[2] = biological target: HsLaRP4A La-module (111–287) (human) (UniProt Q71RC2); assay: as above
[3] = biological target: HsLa La-module (4–194) (human) (UniProt P05455); assay: as above
[4] = biological target: HsLaRP7 La-module (1–208) (human) (UniProt Q4G0J3); assay: SEC-SAXS; in-line size exclusion (Agilent BioSEC3, 300 Å pores) with SAXS at SWING, SOLEIL; apo protein loaded at around 200 µM; 20 mM HEPES pH 7.2, 200 mM NaCl, 5 mM MgCl2, 0.5 mM TCEP; 25°C; molecular weight from Porod volume compared with sequence; both purified
[5] = biological target: HsLaRP6 85–300 La-module (human) (UniProt Q9BRS8); assay: SEC-SAXS; in-line size exclusion (Agilent BioSEC3, 300 Å pores) with SAXS at SWING, SOLEIL; apo protein loaded at around 150–200 μM; 20 mM Tris pH 7.5, 100 mM KCl, 1 mM TCEP; 25°C; molecular weight from Porod volume compared with sequence; both purified

In the case of “HsLaRP4B La-module (151–328) (from UniProt Q92615 151-328) (domain or fragment)”, the binding [1] is reported as “no binding (tested: 150–200 μM)”.

With “HsLaRP4A La-module (111–287) (from UniProt Q71RC2 111-287) (domain or fragment)” the binding [2] was “no binding (tested: 150–200 μM)”.

B1: HsLa La-module (4–194) (domain or fragment, UniProt P05455 4-194)
chain: NGDNEKMAALEAKICHQIEYYFGDFNLPRDKFLKEQIKLDEGWVPLEIMIKFNRLNRLTTDFNVIVEALSKSKAELMEISEDKTKIRRSPSKPLPEVTDEYKNDVKNRSVYIKGFPTDATLDDIKEWLEDKGQVLNIQMRRTLHKAFKGSIFVVFDSIESAKKFVETPGQKYKETDLLILFKDDYFAKKNE
For B1, the binding [3] was “no binding (tested: 150–200 μM)”.

B2: HsLaRP7 La-module (1–208) (domain or fragment, UniProt Q4G0J3 1-208)
chain: METESGNQEKVMEEESTEKKKEVEKKKRSRVKQVLADIAKQVDFWFGDANLHKDRFLREQIEKSRDGYVDISLLVSFNKMKKLTTDGKLIARALRSSAVVELDLEGTRIRRKKPLGERPKDEDERTVYVELLPKNVNHSWIERVFGKCGNVVYISIPHYKSTGDPKGFAFVEFETKEQAAKAIEFLNNPPEEAPRKPGIFPKTVKNKP
B2 was tested, and the binding [4] was “no binding (tested: around 200 µM)”.

B3: HsLaRP6 85–300 La-module (domain or fragment, UniProt Q9BRS8 85-300)
chain: WKPPDEELIKKLVDQIEFYFSDENLEKDAFLLKHVRRNKLGYVSVKLLTSFKKVKHLTRDWRTTAHALKYSVVLELNEDHRKVRRTTPVPLFPNENLPSKMLLVYDLYLSPKLWALATPQKNGRVQEKVMEHLLKLFGTFGVISSVRILKPGRELPPDIRRISSRYSQVGTQECAIVEFEEVEAAIKAHEFMITESQGKENMKAVLIGMKPPKKKP
With B3 the binding [5] was “no binding (tested: 150–200 μM)”.
